Several values for one entry are separate records, joined by “and”; a condition that tells them apart may be missing. Identical values can stand only once. In all, about 320,000 compounds went through this assay and about 22,000 (6.9%) were called active. Inconclusive results, whose numbers are uncertain, are shown with a selection of clear calls. Calls come from the whole dose curve; as a rule, active = well fitted inhibition curve with a large enough effect; inconclusive = small, poorly fitted or top-dose-only effect, or another doubt; inactive = no such curve, though single readings can be large or run the other way. Where the call is inconclusive, the potency comes from a doubtful curve fit. Where a structure was tested more than once in an assay, its records may differ in their call.
Assay: Primary qHTS for delayed death inhibitors of the malarial parasite plastid, 96 hour incubation
Conditions: P. falciparum luciferase reporter growth; series mostly up to 28.7 µM
Outline: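 Luminescence readout: decreased luciferase signal marks inhibited growth of reporter-expressing P. falciparum in infected red cells (2% hematocrit, 0.05% parasitemia final), exposed to compound two generations (96 h, 37 C, 5% CO2).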
Potency is the fitted concentration of half-maximal effect.

Row | Compound | Potency
1 | CCCN(CCC)CCNC(=O)C1CCCN(S(=O)(=O)c2ccc3c(c2)oc(=O)n3C)C1 (stereo not drawn) | inactive
2 | NC(=S)Cc1nc2n(n1)Cc1ccccc1-2 | inactive
3 | Cc1cccc(N2CCCn3c2nc2c3c(=O)n(CC(=O)OCc3ccccc3)c(=O)n2C)c1 | inconclusive: 18.5 µM [inhibitor, single point]
4 | COCCn1c(SCc2csc(-c3ccccc3)n2)nc2ccccc21 | active: 11.7 µM
5 | COc1cc(OC)cc(C(=O)O/N=C(\N)c2cccc(C)c2)c1 | inactive
6 | COC(=O)c1ccc(CN2CCC(n3nccc3NC(=O)C3CC3)CC2)cc1 | inconclusive: 13.1 µM [inhibitor, single point]
7 | Clc1ccccc1-c1nnc2sc(-c3ccc(Br)o3)nn12 | inconclusive: 0.465 µM [inhibitor, full curve, poor fit]
8 | O=S(=O)(c1ccccc1)N1CCN(C(=S)NCCc2ccccc2)CC1 | inconclusive: 14.7 µM [inhibitor, single point]
9 | CCN(CC)c1nc2c(c(=O)n(C)c(=O)n2C)n1CCCc1ccccc1 | inactive
10 | O=C(CSc1nnc(C2COc3ccccc3O2)o1)N1CCOCC1 (stereo not drawn) | inconclusive: 18.5 µM [inhibitor, single point]
11 | O=C1CCC(C(=O)N2CCCCO2)CN1Cc1cccc(F)c1 (stereo not drawn) | inconclusive: 11.7 µM [inhibitor, partial curve]
12 | Cc1cc(OC(C)C(=O)N2CCN(c3ccccc3)CC2)c2c(C)c(C)c(=O)oc2c1 (stereo not drawn) | active: 13.1 µM
13 | CCOC(=O)CCc1c(C)c2ccc(OCC(=O)N3CCOCC3)c(C)c2oc1=O | inconclusive: 18.5 µM [inhibitor, single point]
14 | Cc1nc2ccc3nc(NC(=O)c4ccc(S(=O)(=O)N5CCOCC5)cc4)sc3c2s1 | inconclusive: 18.5 µM [inhibitor, single point]
15 | O=C(COc1ccc2c3c(c(=O)oc2c1)CCC3)NCC(O)c1ccccc1 (stereo not drawn) | inactive
16 | Cc1ccc(N2CC(C(=O)Nc3cccnc3)CC2=O)cc1C (stereo not drawn) | inactive
17 | CN(C)c1ccc(N=Nc2ccccc2C(=O)OCC(=O)N2CCCCCC2)cc1 | inactive
18 | CC1CCCC(C)N1C(=O)CSc1nc2ccccc2c(=O)[nH]1 (stereo not drawn) | inconclusive: 9.28 µM [inhibitor, partial curve, poor fit]
19 | COc1ccccc1C1CCN(Cc2ccc(C)cc2)CC1 | inconclusive: 16.5 µM [inhibitor, partial curve, poor fit]
20 | COc1ncnc(OC)c1S(=O)(=O)NCc1ccccc1 | inactive
21 | CC#CC[N+](C)(C)CCCCCCCCCC | inconclusive: 0.738 µM [inhibitor, full curve, poor fit]
22 | CSCCC(NC(=O)/C(=C\c1ccco1)NC(=O)c1ccco1)C(=O)O (stereo not drawn) | inconclusive: 13.1 µM [inhibitor, single point]
23 | C=CCOC(=O)C1=C(C)NC(SCC(=O)Nc2nccs2)=C(C#N)C1c1ccc(Cl)cc1 (stereo not drawn) | active: 2.08 µM
24 | Cc1nc(/C(N)=N/OC(=O)c2c(-c3ccccc3Cl)noc2C)cs1 | active: 10.4 µM
25 | CCOc1cc(N2CCOCC2)c(OCC)cc1NC(=O)CSc1cccc[n+]1[O-] | inconclusive: 5.22 µM [inhibitor, partial curve]

Row | Compound | Potency
26 | CC(=O)NS(=O)(=O)c1ccc(NC(=O)c2ccccn2)cc1 | inactive
27 | COc1ccccc1C(=O)NCCCNC(=O)c1cnccn1 | inconclusive: 2.08 µM [inhibitor, full curve, poor fit]
28 | COc1ccc(-c2cn(-c3ccc(C)cc3)c(=O)n2CC(=O)Nc2cccc(F)c2)cc1 | inconclusive: 9.28 µM [inhibitor, single point]
29 | O=C(CNC(c1ccccc1)c1ccccc1)Nc1c(F)cccc1F | inconclusive: 7.38 µM [inhibitor, partial curve, poor fit]
30 | O=C(NCCc1c[nH]c2ccccc12)C(=O)Nc1cc2c3c(c1)CC(=O)N3CCC2 | active: 2.94 µM
31 | COC(=O)c1ccc(CNC(=O)c2ccc3oc(C(C)C)nc3c2)cc1 | inactive
32 | CSc1ccc(CNc2ccc(Cl)cc2)cc1 | inactive
33 | Cc1ccc(CNC(=O)CCn2nc(-c3ccc(Cl)cc3)ccc2=O)cc1 | inactive
34 | O=C(CC1(O)C(=O)Nc2ccccc21)c1ccc(-n2cccc2)cc1 (stereo not drawn) | inconclusive: 13.1 µM [inhibitor, partial curve, poor fit]
35 | O=C1c2ccccc2NC(c2cccc(F)c2)N1Cc1ccco1 (stereo not drawn) | inconclusive: 0.0828 µM [inhibitor, full curve, poor fit]
36 | COc1cc(CN2CCCC(C(=O)c3sccc3C)C2)cc(Cl)c1O (stereo not drawn) | inconclusive: 9.28 µM [inhibitor, single point]
37 | CCCCCCn1c(O)c(C=NCCN2CCOCC2)c(=O)[nH]c1=O | inactive
38 | O=C(NN=C1C2CC3CC1CC(Cl)(C3)C2)c1cccs1 | inactive
39 | COc1ccc(N2CCN(Cc3cc(=O)oc4ccc(C)cc34)CC2)cc1 | inconclusive: 10.4 µM [inhibitor, single point]
40 | CCCc1cc(=O)[nH]c(SCC(=O)NC(=O)c2ccccc2)n1 | active: 0.415 µM
41 | COc1ccccc1NC(=O)CSc1nnc(CNC(=O)c2ccco2)n1C | inconclusive: 0.0657 µM [inhibitor, full curve, poor fit]
42 | CC(C)C[C@H](NC(=O)c1nc[nH]c1C(=O)N[C@@H](CC(C)C)C(=O)OC(C)(C)C)C(=O)OCc1ccccc1 | inconclusive: 2.08 µM [inhibitor, partial curve, poor fit]
43 | COc1ccc(C(=O)N2CCCC2=O)cc1 | inactive and active: 13.5 µM
44 | C(=C\c1ccccc1)/CN1CCN(C(c2ccccc2)c2ccccc2)CC1 | inactive
45 | Cc1ccc(C(C)(C)C)c(OCCCn2ccnc2)c1 | inconclusive: 10.4 µM [inhibitor, single point]
46 | CCOC(=O)CN(c1ccccn1)S(=O)(=O)c1ccc(OC)cc1 | inconclusive: 13.1 µM [inhibitor, partial curve, poor fit]
47 | CN(CC(=O)Nc1ccc(Cl)cc1)C(=O)c1cccc(S(=O)(=O)N2CCN(Cc3ccccc3)CC2)c1 | inconclusive: 14.7 µM [inhibitor, single point]
48 | COc1cccc(OCCNc2cc(N3CCCCC3)ccc2[N+](=O)[O-])c1 | inconclusive: 13.1 µM [inhibitor, single point]
49 | Cc1ccc(S(=O)(=O)N(C)C)cc1NC(=O)COC(=O)C1CCN(S(=O)(=O)c2cccs2)CC1 | inactive
50 | COc1cc2c(cc1OC)/C(=C/c1ccc(Br)cc1)C(=O)OC2 | inconclusive: 10.4 µM [inhibitor, single point]

Row | Compound | Potency
51 | COc1ccccc1C(CNC(=O)CNC(=O)c1ccc(C)c(C)c1)N1CCCC1 (stereo not drawn) | inconclusive: 10.4 µM [inhibitor, single point]
52 | CC1CCN(C(=O)CSc2nnc(CNc3ccc(F)cc3)n2Cc2ccco2)CC1 | inconclusive: 11.7 µM [inhibitor, single point]
53 | Cc1ccc(S(=O)(=O)N2CCC(n3nnc4cc(C)ccc43)CC2)cc1 | inconclusive: 13.1 µM [inhibitor, single point]
54 | Cc1ccc(S(=O)(=O)NNC(=O)c2ccncc2)cc1[N+](=O)[O-] | active: 1.85 µM
55 | CCNc1nc(NCC)n2c(SC(C(=O)Nc3cc(Cl)cc(Cl)c3)c3ccccc3)nnc2n1 (stereo not drawn) | active: 10.4 µM
56 | CCN(Cc1cnn(C)c1)C(=O)c1cc(COc2ccc(F)cc2F)on1 | inactive
57 | CSCCC(NC(=O)c1ccco1)C(=O)N(C)CC(=O)Nc1c(Cl)cccc1Cl (stereo not drawn) | inactive
58 | CCN(Cc1cc2cc(C)ccc2[nH]c1=O)C(=O)c1cccc(OC)c1 | inconclusive: 18.5 µM [inhibitor, single point]
59 | NNc1nc2cccnc2n(CCNc2ncc(C(F)(F)F)cc2Cl)c1=O | active: 11.7 µM
60 | N#Cc1c[nH]n2c(=O)c3c(nc12)CCCC3 | inconclusive: 0.928 µM [inhibitor, full curve]
61 | Cc1ccc2c(c1)c(N=NC(N)=S)c(O)n2Cc1ccccc1 | inconclusive: 2.08 µM [inhibitor, full curve, poor fit]
62 | COCCCNC(=S)Nc1c(C)cc(C)cc1C | inactive
63 | C=CC[C@H]1CC(C)=C[C@H](CC=C)N1C(=O)c1cc(COc2ccccc2SC)on1 | inconclusive: 18.5 µM [inhibitor, single point]
64 | CCC(C)NC(=S)Nc1ccc2nc(N3CCN(CC)CC3)cc(C)c2c1 (stereo not drawn) | inconclusive: 13.1 µM [inhibitor, single point]
65 | Nc1nc(CN2CCCCC2)cs1 | inconclusive: 11.7 µM [inhibitor, partial curve, poor fit]
66 | COc1ccc(N2C(=O)C(CC(=O)Nc3ccccc3)N(Cc3cccs3)C2=O)cc1 (stereo not drawn) | inconclusive: 2.94 µM [inhibitor, single point]
67 | O=C(CN1C(=O)NC2(CCCCCC2)C1=O)c1ccc(OC(F)F)cc1OC(F)F | inconclusive: 18.5 µM [inhibitor, single point]
68 | CN(CC(=O)Nc1cccc(F)c1)C(=O)/C=C/c1cn(Cc2ccccc2)nc1-c1cccnc1 | active: 10.4 µM
69 | CN(C)C(=O)C(NC(=O)c1ccccc1)=C(Cl)Cl | inactive
70 | O=C(NCCCN1CCOCC1)c1cccc(S(=O)(=O)Nc2cc(Cl)ccc2Cl)c1 | inactive
71 | c1ccc(C2CN3CCC2CC3)cc1 (stereo not drawn) | inactive
72 | Cc1ccc(-c2nnn(CC(=O)N(CC(=O)NC3CCCCC3)c3cccc(F)c3)n2)o1 | inactive
73 | O=C(Cn1ncc2c(=O)oc3ccccc3c21)NC1CC1 | inconclusive: 2.33 µM [inhibitor, full curve]

From PubChem BioAssay AID504834 (National Center for Advancing Translational Sciences (NCATS), 2011)
